Results deposited as PubChem BioAssay AID652272 (Drosophila RNAi Screening Center, 2013)

- Assay: 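Genome-wide knock-down search for components of Hedgehog signalling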 (primary screen)
- Cell system: Drosophila clone 8 (Cl8) cells
- Reagents: long dsRNA against Drosophila genes
- Measured: 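Firefly light from a Hedgehog-responsive ptc promoter reporter and Renilla reference light, both read on a plate reader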
- Reading the numbers: firefly Hh reporter signal: higher = more ptc reporter light; Renilla reference signal: higher = more Renilla control light
- Hit rule: 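Hit when the z-score averaged over two replicates is under -2 or over +3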
- Calls: active = hit: reporter lowered or raised; inactive = not a hit
The deposit covers about 21,000 reagents; this is a random part of those that have a named target and a result. Over the whole deposit, 503 (2.4%) are marked active. 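Raw plate light values, not normalised; calls rest on replicate z-scores that were not deposited; hits include reporter decreases as well as increases.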 Entries without a mark were called inactive. Names joined by + are all predicted targets of the reagent. Not given: the amount of reagent, the time to read-out.

no.	gene knocked down	dsRNA	firefly Hh reporter signal, replicate 1	firefly Hh reporter signal, replicate 2	firefly Hh reporter signal, replicate 3	Renilla reference signal, replicate 1	Renilla reference signal, replicate 2
1	Rcd4	DRSC02597	98009	67879		2731	4525
2	fj	DRSC07619	75002	50307		1856	3541
3	CG42541	DRSC17973	75494	1.39e5		2416	4461
4	CG42541	DRSC18119	18944 (active)	23610		1202	1578
5	CG42541	DRSC18120	68326	1.90e5		2096	7529
6	CG1092	DRSC12151	1.40e5	95414		5109	3635
7	Dhx15	DRSC06036	1.29e5	61845		4808	2345
8	CG5938	DRSC15923	84672	58357		2184	1650
9	l(2)37Cb	DRSC02095	55032	95544		2705	3888
10	CG7377	DRSC10830	82722	41456	31009	5528	2629
11	pico	DRSC19430	64985	1.13e5		1475	4872
12	CG16926	DRSC06637	81197	72581		3638	3155
13	cyst	DRSC02023	76825	55728		4052	2640
14	Nipped-A	DRSC04882	85576	6.07e5	1.03e5	4944	41629
15	Nipped-A	DRSC04883	80684	43837		2393	4395
16	Nipped-A	DRSC04884	70811	43684		2434	4742
17	Nipped-A	DRSC07738	52115	34113		2360	3339
18	stumps	DRSC13045	46872	1.79e5		9881	3794
19	stumps	DRSC15332	55767	56256		1629	1744
20	stumps	DRSC17073	90368	1.16e5		4391	4152
21	CG31161	DRSC16144	5.02e5	95440		26466	3211
22	Pgm1	DRSC10490	60801	56748		2301	2488
23	CG2233	DRSC18217	90624	78628		2224	1865
24	Hpf1	DRSC12202	1.28e5	89697		4811	3888
25	sll	DRSC16271	1.13e5	93085		4697	3446
26	CG13482	DRSC10024	1.71e5	1.21e5		6849	5017
27	mEFTu2	DRSC06163	1.40e5	64440		5408	1882
28	Mp20	DRSC07474	91128	56963		2306	3916
29	S6k	DRSC11276	68018	81531		6965	5499
30	Ir52a	DRSC06262	96656	77008		2619	4838
31	CG8584	DRSC07217	65473	49946		1413	4163

Next part, starting with the last 3 of the part before.
no.	gene knocked down	dsRNA	firefly Hh reporter signal, replicate 1	firefly Hh reporter signal, replicate 2	firefly Hh reporter signal, replicate 3	Renilla reference signal, replicate 1	Renilla reference signal, replicate 2
29	S6k	DRSC11276	68018	81531		6965	5499
30	Ir52a	DRSC06262	96656	77008		2619	4838
31	CG8584	DRSC07217	65473	49946		1413	4163
32	CG6324	DRSC19985	74385	1.92e5		2161	7651
33	CG33080	DRSC18080	96016	2.27e5		3933	9457
34	CG33080	DRSC18081	98617	2.75e5		3773	9002
35	CG33080	DRSC18285	72396	2.08e5		2485	8348
36	CG12480	DRSC19460	1.06e5	6.86e5	4.06e5	2502	2784
37	CR32733 + CG32797	DRSC17705	5.29e5	5.92e5	2.20e5	18425	4629
38	Amy-d + Amy-p	DRSC21242	1.12e5	2.58e5		4589	9700
39	CG30053	DRSC07260	80827 (active)	77493		1349	3130
40	CG4332	DRSC19890	93505	57588		2867	1517
41	CG8326	DRSC20103	78197	89287		2624	2593
42	Treh	DRSC04548	82123	54396		3824	2486
43	Vsp37A	DRSC18794	98247	1.69e5		3367	6202
44	Hakai	DRSC02031	86295	65493		3802	2994
45	Lar	DRSC01707	1.46e5	2.77e5		4240	13207
46	Lar	DRSC03361	87648	59097		3512	2928
47	CG15922	DRSC15128	7.16e5	1.54e5		37480	3093
48	Cpr56F	DRSC07326	82201	42992		2160	3088
49	Nufip	DRSC10397	1.06e5	41440		3433	1674
50	CG7987	DRSC16357	91051	1.43e5		3715	5123
51	CG18586	DRSC10325	36264	77158		691	5581
52	CG12493	DRSC08279	88006	71482		9601	5512
53	CG6765	DRSC10706	20038	59415		3389	4354
54	Tsp39D	DRSC03099	1.02e5	68787		2523	6432
55	Dlish	DRSC06016	1.45e5	58465		3765	3943
56	CG30122	DRSC06776	1.46e5	92672		6989	4249
57	CG30122	DRSC06935	1.24e5	58376		3968	5313
